Source: US20240175880A1
These are yes or no findings as the source states them, for the method shown. Some results given as binding are weak or reduced against the parent protein; the word gives no strength. Where a sequence is shown, tags or fusion partners need not be part of it.

Protein sequences, listed by entry. Tags and fused reporters are not part of them. Residues count along the entry.
UniProt Q7Z5A7, residues 44-132: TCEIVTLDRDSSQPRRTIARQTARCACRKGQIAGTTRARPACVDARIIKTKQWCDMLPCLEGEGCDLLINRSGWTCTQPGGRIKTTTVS
UniProt M0R7X9, residues 44-132: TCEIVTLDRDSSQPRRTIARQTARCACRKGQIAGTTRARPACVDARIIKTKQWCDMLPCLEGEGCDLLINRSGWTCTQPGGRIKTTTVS
UniProt Q91WE9, residues 44-132: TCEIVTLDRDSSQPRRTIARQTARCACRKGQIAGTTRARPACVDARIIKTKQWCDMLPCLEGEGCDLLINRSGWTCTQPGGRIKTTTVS

Legend:
[1] = target: FAM19A5 protein in human peripheral blood (human) (UniProt Q7Z5A7); test: sandwich ELISA, His-TEV-LRRC4B coated as capture, HRP-conjugated anti-FAM19A5 antibody as detector
[2] = target: FAM19A5 protein in the blood of cynomolgus monkeys (cynomolgus monkey); test: as above
[3] = target: FAM19A5 protein in the blood of marmoset monkeys (marmoset); test: as above
[4] = target: FAM19A5 protein in the blood of naive rats (rat) (UniProt M0R7X9); test: as above
[5] = target: FAM19A5 protein in the blood of naive wild-type mice (mouse) (UniProt Q91WE9); test: sandwich ELISA, His-TEV-LRRC4B coated as capture, HRP-conjugated anti-FAM19A5 antibody as detector; no signal in FAM19A5 knockout blood

Measured: binding

B1: LRRC4B peptide fragment conjugated to a His tag Tobacco Etch Virus (TEV) protease sequence (protein, UniProt Q9NT99 453-576, looked up, not shown: small tags and cut ends)
chain: VSAVDPVAAGGTGSGGGGPGGSGGVGGGSGGYTYFTTVTVETLETQPGEEALQPRGTEKEPPGPTTDGVWGGGRPGDAAGPASSSTTAPAPRSSRPTEKAFTVPITDVTENALKDLDDVMKTTK
binds: all assays above
